From patent CN111171150A come the findings set out here.

Results are given in words; binding and its absence hold for the method and conditions named. Some binding calls cover weakened binding; strength is not graded here.

The assay concerns the target mfTSLP (cynomolgus monkey (Macaca fascicularis)). Description: phage-displayed scFv library panned on solid-phase TSLP1-m-his; binding test not described.

B1: S2B1 (单链抗体, scFv clone) (scFv, V domains shown)
VH: EVKLQQSGAELVRPGSSVKISCKASGYAFSNYWMNWVKQRPGQGLEWIGQIFPGDGDTDYNGKFKGKATLTADKSSSTAYMQLSSLTSEDSAVYFCARAGYYRGYYAMDYWGQGTSVTVSA
VL: EIVLTQSPALMAASPGEKVTITCSVSSSISSSNLHWYQQKSETSPKPWIYGTSNLASGVPVRFSGSGSGTSYSLTISSMEAEDAATYYCQQWSSYPLTFGAGTKLEIK
Turning to B1, the binding entry is on record as “binds”.
